Source: patent EP1864995B1, “BETA-LACTAMIC RGD CYCLOPEPTIDES CONTAINING GAMMA TURNS” (UNIVERSIDAD DEL PAIS VASCO-EUSKAL HERRIKO UNIBERSITATEA, priority 2004, dated 2010)
Where a name gives a salt, the structure may show the parent alone. Part of at least one peptide drawing is inferred or uncertain, most often the ends.

Tested on: integrin αvβ3
Experiment: Endothelial cell adhesion assay (HUVEC adhesion on vitronectin)
Type: cell-based, Human
Conditions: HUVEC preincubated 20 min with compound, plated on vitronectin-coated 96-well plate, 1 h at 37°C; 10^-4M to 10^-9M; adherent cells by DAPI; Figure 11

N=C(N)NCCC[C@@H]1NC(=O)CN2C[C@@](Cc3ccccc3)(NC(=O)[C@H](CC(=O)O)NC(=O)CNC1=O)C2=O [Compound B, cyclo[Arg-Gly-Asp-(beta-Lactam)] trifluoroacetate salt]
inhibition of integrin αvβ3-mediated adhesion: inhibition of integrin αvβ3-mediated adhesion at sub-micromolar concentration
